Results deposited as PubChem BioAssay AID686943 (Drosophila RNAi Screening Center, 2013).

Aim: 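Fly genes whose loss alters ERK activation after insulin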 (primary screen)
Cell system: Drosophila S2R+ haemocyte-like cells expressing YFP-tagged ERK (Rolled)
Reagent: long dsRNA against Drosophila genes
Treatment: insulin stimulation versus unstimulated cells; dose and duration not given
Measurement: 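Antibody staining for doubly phosphorylated ERK divided by ERK-YFP signal, as plate z-scores, in insulin-treated and untreated cells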
Scale: replicate 1, z-score of dpERK with insulin: higher = more active ERK per ERK-YFP after insulin
The deposit covers about 23,000 reagents; shown is a random part of those that have a named target and a result. 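Extra replicates exist only for a retested subset of genes; insulin dose and duration not given; both raised and lowered dpERK matter.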 The numbers tell different reagents against one gene apart. A plus sign joins genes that one reagent is predicted to hit. Not all columns of the deposit are shown. Not given: the amount of reagent, the time to read-out.

MED25 (GeneID 42385)
- replicate 1, z-score of dpERK with insulin: -1.69

Megf8 (GeneID 34099)
- replicate 1, z-score of dpERK with insulin: 0.41

Shawn + Tyler #1
- replicate 1, z-score of dpERK with insulin: 0.47

Shawn + Tyler #2
- replicate 1, z-score of dpERK with insulin: -0.91

CG31031 (retired record) (GeneID 318564)
- replicate 1, z-score of dpERK with insulin: -0.41

CG9426 (GeneID 34719)
- replicate 1, z-score of dpERK with insulin: -2.32

Gr58c (GeneID 37501)
- replicate 1, z-score of dpERK with insulin: 0.52

RunxB (GeneID 33051) #1
- replicate 1, z-score of dpERK with insulin: 1.41

RunxB (GeneID 33051) #2
- replicate 1, z-score of dpERK with insulin: 0.92

RunxB (GeneID 33051) #3
- replicate 1, z-score of dpERK with insulin: -7.9

betaCOP (GeneID 32820)
- replicate 1, z-score of dpERK with insulin: 2.23

CR30374 (GeneID 10178922)
- replicate 1, z-score of dpERK with insulin: 0.43
